Library screen at single concentrations

Source: ChEMBL document CHEMBL3988442, “University of Dundee, Small-Polar-MMV Screening Library” (2021).

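Assay of Toxoplasma gondii numbers, read through their beta-galactosidase reporter with a colour substrate. Tested at 50 µM. The record gives no direction; the compounds picked for IC50 retests had high values, so higher reads as fewer parasites. Of about 18,000 compounds tested this way, about 170 (0.94%) reached 50% or more in at least one test.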

Values are the deposited “Percent Effect”, in %. The controls that fix the scale are not given in the record; negative values are as filed. Compounds were drawn at random from those tested, without regard to their results.

| compound | Percent Effect |
|---|---|
| `Nc1ccc(C(=O)NCC2(CO)CCOCC2)cn1` | -7.7% |
| `COCC1(C(=O)N2C[C@@H](N)C[C@H]2C(=O)NC(C)C)CC1` | -6.582% |
| `Cc1cc(C(=O)N2CCC[C@@H](N)C2)on1` | -3.332% |
| `CC(CO)CNC(=O)CCNC(=O)NC1CCCCC1` (stereo not given) | 17.39% |
| `CSCc1noc(CN2C[C@H](C3CC3)[C@@H](N)C2)n1` | 6.081% |
| `Cc1nnc(NC(=O)CCNC(=O)C(C)C)s1` | -4.751% |
| `CC(C)CS(=O)(=O)CCNC(=O)Cn1cccnc1=O` | -6.374% |
| `O=C(CC1CCc2ccccc21)NCCOCCO` (stereo not given) | 0.8095% |
| `CN1C(=O)Cc2cc(NC(=O)c3cccn3C)ccc21` | -7.065% |
| `C=C(C)COc1cccc(CNCCNS(C)(=O)=O)c1` | 0.4841% |
| `O=C1CNCCN1CCc1ccccc1` | 11.64% |
| `CCOc1ccc2c(c1)cc(C(=O)NCCOC)n2C` | -0.5511% |
| `CN(CC(O)C(F)(F)F)C(=O)c1cccc(C#N)c1` (stereo not given) | -4.877% |
| `Cc1nnc2n1N=C(c1ccccc1)CS2` | 84.29% |
| `Cc1cccc(C(=O)N2CCC3(CC2)OCCO3)n1` | -4.83% |
| `NC(=O)CN(C(=O)c1cccc(Cl)c1)c1ccccc1` | -6.03% |
| `CC(C)(C)CNCc1cccnc1N1CCOCC1` | 3.1% |
| `CC(C)(CC(N)=O)NC(=O)CC1CCC1` | -4.68% |
| `Cc1c(C(=O)NC2=NCCS2)oc2ccccc12` | 0.6432% |
| `CC(O)c1cnc2ccccc2c1` (stereo not given) | 3.882% |
| `O=C(c1ccc(F)cc1)c1ncc[nH]1` | -4.822% |
| `CCOc1ccc(OCC)c(NC(=O)CN)c1` | -4.627% |
| `c1csc(C2CNCCO2)c1` (stereo not given) | -10.23% |
| `Cc1c(NC(=O)c2cnccn2)cccc1C(N)=O` | -0.8842% |
| `CN(C)CCCNC(N)=O` | -3.079% |
| `CNc1cnc(C#N)cn1` | -7.611% |
| `Cn1nccc1C(=O)N1CCC(Oc2ccccc2)C1` (stereo not given) | 1.298% |
| `COCCC1(CO)CCCN(Cc2c(C)n[nH]c2C)C1` (stereo not given) | -19.57% |
| `Cc1cc(CCC(=O)NCCC(N)=O)ccc1Br` | -2.096% |
| `O=C(NC1CCS(=O)(=O)C1)N1CCc2sccc2C1` (stereo not given) | -1.563% |
| `Cc1ccc(CCC(=O)N(C)C)cc1` | -0.2789% |
| `CC(C(=O)NC1CCCC1)N1CCC2(CC1)OCCO2` (stereo not given) | -0.405% |
| `CN(CCCN)C(=O)Cc1cccc(Br)c1` | -2.048% |
| `NCC(O)c1c(F)cccc1F` (stereo not given) | 17.54% |
| `CN(C)S(=O)(=O)CCCN1CCCC(CO)C1` (stereo not given) | 3.324% |
| `CC(C)(C(=O)N1CC[C@@H](O)C1)c1ccccc1` | -3.951% |
| `NC(=O)c1cc(N2CCCC2)nc2ccccc12` | 2.977% |
| `Cc1cccc(NC(=O)NCc2ccnn2C)n1` | 18.14% |
| `COc1cccc(-c2cc(N)n(C)n2)c1` | 8.959% |
| `COC(C)C(=O)OCCn1nc2ccccn2c1=O` (stereo not given) | -5.427% |
| `CC(=O)NCCN1CCCC1` | 4.614% |
| `CC(C)Oc1cccc(C(=O)NC2CCN(C)CC2)c1` | -10.21% |
| `O=C(COC(=O)c1ccccn1)Nc1ccccc1` | -22.42% |
| `CCCc1ncncc1C(=O)N1C[C@H](OCC)[C@@H](O)C1` | -27.96% |
| `CN1C(=O)C[C@@H](C(N)=O)[C@@H]1c1cnn(C)c1` | -4.26% |
| `O=C1COC[C@H]2CNCC[C@H]2N1Cc1ccccc1` | -4.301% |
| `CC1(C)CCCN1C(=O)NCCCF` | -5.536% |
| `CC(=O)NCCNS(=O)(=O)c1cc(C)ccc1C` | -10.46% |
| `NC1CC(c2cc(NCCCc3ncc[nH]3)ncn2)C1` (stereo not given) | -9.42% |
| `Cc1occc1SCC1=Nc2ccccc2S(=O)(=O)N1` | 3.632% |
| `CC(C)[C@H](N)C(=O)N1CCC(Oc2cccnc2)C1` (stereo not given in full) | 0.8158% |
| `CC1(C)CN(S(=O)(=O)N2CCCCC2)CC[S+]1[O-]` (stereo not given) | -3.438% |
| `CN(C)C(=O)C1CCN(C(=O)c2cccc(F)c2)CC1` | -6.83% |
| `CC[C@H](C)[C@H](N)C(=O)N(C)CCc1scnc1C` | 8.743% |
| `Cc1ccc2[nH]c(CN)nc2c1C` | 21.95% |
| `CNCc1ncc(C2CC2)o1` | 10.08% |
| `CC(C(=O)NC1CC1)N1CCN(S(=O)(=O)N(C)C)CC1` (stereo not given) | -10.68% |
| `C/C=C/c1ccc(OCCN2CCNCC2)c(OC)c1` | 13.14% |
| `CNS(=O)(=O)C1CCN(S(=O)(=O)c2ccccc2)CC1` | 7.001% |
| `CC(C)NS(=O)(=O)c1cccc(C(=O)NCCCO)c1` | -5.218% |
| `COc1c(C)cnc(CN2CCOCC2C)c1C` (stereo not given) | 2.377% |
| `CCc1nc2n(n1)CCCC2N` (stereo not given) | -0.8989% |
| `CC(=O)NC1CCCNC1` (stereo not given) | -22.66% |
| `CCOC(C)C(=O)NCc1nnc2n1CCCCC2` (stereo not given) | 0.1083% |
| `Cc1n[nH]c(C)c1NC(=O)CNC(C)C1CCOCC1` (stereo not given) | -1.756% |
| `Nc1ccc(C2CCCN2)nn1` (stereo not given) | -11.77% |
| `CCC(c1cccnc1)N(C)C(=O)c1ccc(CO)o1` (stereo not given) | -13.98% |
| `O=C(Nc1ccccc1I)C1COCCO1` (stereo not given) | 25.64% |
| `CC(CCc1ccc(O)cc1)NC1(CO)CC1` (stereo not given) | -17.08% |
| `c1ccc2c(c1)COC21CCNCC1` | 12.79% |
| `CN(C(=O)NCCCC(C)(C)CO)C1CCC1` | 14.85% |
| `Cc1c(C(=O)NC(C)(CO)CO)cnn1C1CCCC1` | -3.309% |
| `COc1ccc(-c2ccc(CNS(N)(=O)=O)s2)cc1` | 2.451% |
| `NC(=O)c1cc2c([nH]c1=O)CCCC2` | 0.3483% |
| `Cc1ccc(F)cc1NC(=O)NCC(=O)N1CCCC1` | -9.34% |
| `O=c1cnc2cc(Cl)c(Cl)cc2n1CCO` | -0.8369% |
| `CC(C)OC1CCCNC1` (stereo not given) | 4.381% |
| `NCC1CCSCC1` | 8.856% |
| `O=C(c1ccccc1)N1CCCNCC1` | 3.438% |
| `COc1cc(OC)c(NC(=O)C2CCCN2)cc1F` (stereo not given) | -14.04% |
| `CCCC(NC(=O)c1cnc(O)cn1)c1nccn1C` (stereo not given) | 10.92% |
| `CCn1cc(NC(=O)NCc2ccoc2)nn1` | -5.101% |

For reference, 7 entries once more:

- NC(=O)c1cc(N2CCCC2)nc2ccccc12 : 2.977%
- CN(C(=O)NCCCC(C)(C)CO)C1CCC1 : 14.85%
- NC(=O)c1cc2c([nH]c1=O)CCCC2 : 0.3483%
- Cc1occc1SCC1=Nc2ccccc2S(=O)(=O)N1 : 3.632%
- Cc1cc(C(=O)N2CCC[C@@H](N)C2)on1 : -3.332%
- CC(=O)NCCN1CCCC1 : 4.614%
- CCOc1ccc2c(c1)cc(C(=O)NCCOC)n2C : -0.5511%